In the supplement of paper PMC10032668:
This is one part of the list. The list holds hits alone, and they repeat only in part.

The chains behind the UniProt entries cited, without tags or fusion partners.
CFDP1, Q9UEE9, UniProt Q9UEE9, whole entry: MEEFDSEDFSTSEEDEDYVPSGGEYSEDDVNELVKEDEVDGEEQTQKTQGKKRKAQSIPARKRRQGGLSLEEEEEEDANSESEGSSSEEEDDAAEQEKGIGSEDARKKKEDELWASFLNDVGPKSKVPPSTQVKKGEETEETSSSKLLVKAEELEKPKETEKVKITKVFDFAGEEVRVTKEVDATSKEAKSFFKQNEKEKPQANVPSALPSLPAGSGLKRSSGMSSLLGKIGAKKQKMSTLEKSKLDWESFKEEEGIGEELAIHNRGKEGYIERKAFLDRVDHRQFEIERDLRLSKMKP
DPY30, Q9C005, UniProt Q9C005, whole entry: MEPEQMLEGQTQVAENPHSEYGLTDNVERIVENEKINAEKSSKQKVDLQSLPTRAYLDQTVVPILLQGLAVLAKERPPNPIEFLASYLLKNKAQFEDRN
RANBP2, P49792, UniProt P49792, whole entry: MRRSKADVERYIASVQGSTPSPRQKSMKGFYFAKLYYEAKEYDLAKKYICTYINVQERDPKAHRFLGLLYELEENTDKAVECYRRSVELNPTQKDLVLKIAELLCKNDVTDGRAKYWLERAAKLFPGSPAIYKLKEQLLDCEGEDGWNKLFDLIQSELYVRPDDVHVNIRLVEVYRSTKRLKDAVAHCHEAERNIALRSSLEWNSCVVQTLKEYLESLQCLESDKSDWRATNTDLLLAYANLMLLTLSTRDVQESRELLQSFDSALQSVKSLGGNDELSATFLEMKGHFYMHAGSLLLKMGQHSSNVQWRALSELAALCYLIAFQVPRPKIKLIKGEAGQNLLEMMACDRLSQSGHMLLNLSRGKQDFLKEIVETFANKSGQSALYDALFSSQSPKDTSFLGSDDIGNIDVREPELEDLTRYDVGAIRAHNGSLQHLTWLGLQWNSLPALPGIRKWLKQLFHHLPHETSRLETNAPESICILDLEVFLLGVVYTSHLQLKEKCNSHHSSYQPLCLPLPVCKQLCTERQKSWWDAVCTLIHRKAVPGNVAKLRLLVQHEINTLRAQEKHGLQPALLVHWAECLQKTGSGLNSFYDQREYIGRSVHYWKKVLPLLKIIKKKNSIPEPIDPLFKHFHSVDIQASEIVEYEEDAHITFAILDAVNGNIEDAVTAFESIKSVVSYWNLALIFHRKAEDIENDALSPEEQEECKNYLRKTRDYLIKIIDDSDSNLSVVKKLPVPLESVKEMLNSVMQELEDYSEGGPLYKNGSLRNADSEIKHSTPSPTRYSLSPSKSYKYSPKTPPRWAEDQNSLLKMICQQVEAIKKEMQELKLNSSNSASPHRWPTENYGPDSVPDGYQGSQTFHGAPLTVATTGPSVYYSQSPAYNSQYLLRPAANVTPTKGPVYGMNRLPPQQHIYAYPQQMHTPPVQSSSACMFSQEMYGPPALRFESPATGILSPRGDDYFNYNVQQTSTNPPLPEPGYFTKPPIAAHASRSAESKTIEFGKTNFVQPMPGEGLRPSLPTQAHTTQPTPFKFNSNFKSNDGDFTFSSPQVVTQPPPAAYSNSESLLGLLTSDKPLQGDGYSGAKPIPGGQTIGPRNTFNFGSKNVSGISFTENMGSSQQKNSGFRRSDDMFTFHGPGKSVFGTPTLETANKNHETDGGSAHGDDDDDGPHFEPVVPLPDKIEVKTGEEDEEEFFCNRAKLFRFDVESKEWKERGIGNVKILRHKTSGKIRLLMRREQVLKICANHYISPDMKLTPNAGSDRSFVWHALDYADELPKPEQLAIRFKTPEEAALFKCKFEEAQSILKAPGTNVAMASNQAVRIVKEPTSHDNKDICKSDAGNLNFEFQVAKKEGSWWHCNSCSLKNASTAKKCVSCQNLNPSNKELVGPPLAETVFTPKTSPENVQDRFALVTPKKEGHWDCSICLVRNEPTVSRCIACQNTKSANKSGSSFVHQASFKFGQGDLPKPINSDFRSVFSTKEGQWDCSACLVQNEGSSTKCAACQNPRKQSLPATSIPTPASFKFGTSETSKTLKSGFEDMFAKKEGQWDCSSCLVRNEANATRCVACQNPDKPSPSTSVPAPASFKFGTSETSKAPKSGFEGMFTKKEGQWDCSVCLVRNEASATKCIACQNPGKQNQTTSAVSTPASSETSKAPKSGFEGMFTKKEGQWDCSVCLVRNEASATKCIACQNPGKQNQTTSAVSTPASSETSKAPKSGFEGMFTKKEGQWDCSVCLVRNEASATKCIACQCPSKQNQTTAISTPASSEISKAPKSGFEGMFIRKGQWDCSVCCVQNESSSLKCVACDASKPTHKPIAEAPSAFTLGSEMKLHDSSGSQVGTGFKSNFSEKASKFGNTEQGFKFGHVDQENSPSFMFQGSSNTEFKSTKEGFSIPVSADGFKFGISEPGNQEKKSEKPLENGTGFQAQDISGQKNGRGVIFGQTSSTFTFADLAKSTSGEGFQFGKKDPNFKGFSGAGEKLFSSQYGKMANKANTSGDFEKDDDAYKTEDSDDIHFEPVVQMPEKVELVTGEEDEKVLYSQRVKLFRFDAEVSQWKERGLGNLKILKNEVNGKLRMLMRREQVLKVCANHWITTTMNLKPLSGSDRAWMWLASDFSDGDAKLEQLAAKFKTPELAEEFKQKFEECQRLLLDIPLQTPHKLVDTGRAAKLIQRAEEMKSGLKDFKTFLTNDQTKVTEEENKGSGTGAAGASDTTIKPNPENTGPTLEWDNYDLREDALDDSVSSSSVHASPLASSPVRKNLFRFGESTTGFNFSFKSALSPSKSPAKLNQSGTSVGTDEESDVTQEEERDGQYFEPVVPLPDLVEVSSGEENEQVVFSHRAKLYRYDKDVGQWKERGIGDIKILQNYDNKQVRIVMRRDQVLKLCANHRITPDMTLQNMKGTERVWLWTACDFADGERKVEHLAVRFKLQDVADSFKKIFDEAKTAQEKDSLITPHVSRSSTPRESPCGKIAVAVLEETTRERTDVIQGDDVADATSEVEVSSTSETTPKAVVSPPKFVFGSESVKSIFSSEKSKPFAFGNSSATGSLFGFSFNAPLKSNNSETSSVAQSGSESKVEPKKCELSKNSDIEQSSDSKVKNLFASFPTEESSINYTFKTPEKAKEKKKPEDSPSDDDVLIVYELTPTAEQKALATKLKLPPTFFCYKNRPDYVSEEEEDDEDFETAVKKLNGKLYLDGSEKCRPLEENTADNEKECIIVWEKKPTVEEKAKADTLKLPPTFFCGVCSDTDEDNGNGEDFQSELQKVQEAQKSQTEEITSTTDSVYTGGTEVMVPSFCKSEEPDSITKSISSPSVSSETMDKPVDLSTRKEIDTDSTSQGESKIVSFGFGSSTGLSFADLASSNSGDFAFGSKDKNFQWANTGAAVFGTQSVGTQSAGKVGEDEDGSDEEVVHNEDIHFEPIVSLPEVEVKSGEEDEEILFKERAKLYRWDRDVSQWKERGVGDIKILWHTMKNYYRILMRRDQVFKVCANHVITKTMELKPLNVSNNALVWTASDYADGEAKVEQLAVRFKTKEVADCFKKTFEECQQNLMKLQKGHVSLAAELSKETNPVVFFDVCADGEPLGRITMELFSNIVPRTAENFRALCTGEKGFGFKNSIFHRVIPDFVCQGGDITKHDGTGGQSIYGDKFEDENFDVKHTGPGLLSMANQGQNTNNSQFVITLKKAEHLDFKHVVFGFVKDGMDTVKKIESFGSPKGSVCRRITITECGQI
TAF5, Q15542, UniProt Q15542, whole entry: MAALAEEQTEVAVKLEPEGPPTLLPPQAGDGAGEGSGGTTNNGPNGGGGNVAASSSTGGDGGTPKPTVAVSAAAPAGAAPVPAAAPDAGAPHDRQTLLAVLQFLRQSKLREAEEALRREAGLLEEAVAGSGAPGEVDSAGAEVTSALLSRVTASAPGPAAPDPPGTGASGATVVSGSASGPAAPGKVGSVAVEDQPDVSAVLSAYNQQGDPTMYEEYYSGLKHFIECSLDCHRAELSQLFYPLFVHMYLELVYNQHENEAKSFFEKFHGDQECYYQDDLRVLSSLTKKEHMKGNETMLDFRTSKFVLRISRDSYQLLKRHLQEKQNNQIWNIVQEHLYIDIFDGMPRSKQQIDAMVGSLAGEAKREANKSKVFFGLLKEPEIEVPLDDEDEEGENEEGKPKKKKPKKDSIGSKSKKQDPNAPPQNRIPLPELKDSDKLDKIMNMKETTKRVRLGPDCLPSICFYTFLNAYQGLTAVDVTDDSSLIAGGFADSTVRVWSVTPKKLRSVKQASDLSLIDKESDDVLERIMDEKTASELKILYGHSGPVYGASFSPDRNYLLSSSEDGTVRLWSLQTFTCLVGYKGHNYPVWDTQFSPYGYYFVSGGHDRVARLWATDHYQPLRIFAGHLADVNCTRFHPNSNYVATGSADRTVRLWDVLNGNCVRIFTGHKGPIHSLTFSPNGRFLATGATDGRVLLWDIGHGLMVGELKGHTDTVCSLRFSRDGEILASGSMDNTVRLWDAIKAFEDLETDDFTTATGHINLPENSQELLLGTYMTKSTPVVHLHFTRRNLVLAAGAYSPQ
VIM, P08670, UniProt P08670, whole entry: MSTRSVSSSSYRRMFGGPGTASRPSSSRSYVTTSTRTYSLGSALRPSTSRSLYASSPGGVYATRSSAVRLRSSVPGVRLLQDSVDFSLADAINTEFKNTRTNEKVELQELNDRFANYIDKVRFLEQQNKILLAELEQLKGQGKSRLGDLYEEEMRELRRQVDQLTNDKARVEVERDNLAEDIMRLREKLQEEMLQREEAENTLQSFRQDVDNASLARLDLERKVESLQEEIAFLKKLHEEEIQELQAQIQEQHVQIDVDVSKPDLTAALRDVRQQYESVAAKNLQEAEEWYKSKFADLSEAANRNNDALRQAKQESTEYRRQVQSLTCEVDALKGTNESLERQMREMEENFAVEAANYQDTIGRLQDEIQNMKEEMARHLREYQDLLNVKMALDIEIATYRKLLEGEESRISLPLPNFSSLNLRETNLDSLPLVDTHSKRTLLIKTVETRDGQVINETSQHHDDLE

Legend:
Assay in all cases: PRISMA enrichment of interactor (LFQ) in peptide spot vs all other peptide spots (log2 fold change); higher = stronger / more specific binding of the interactor to the peptide
ANXA7, P20073 = molecular target: ANXA7, P20073
Description: (§1)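 PRISMA: 15-aa overlapping tiles (offset 8 aa) of 60 microproteins, plus SOS1/GLUT1 control peptides, were spot-synthesized on cellulose membranes in triplicate. Membranes were incubated with benzonase-treated HEK293T lysate, and bound proteins were identified by LC-MS/MS with LFQ. Enrichment is the log2 fold change of each protein in one spot versus all other spots. Only interactors passing the significance cutoff are listed.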

ARL6IP4, Q66PJ3 = molecular target: ARL6IP4, Q66PJ3
Description: as §1

ATR, Q13535 = molecular target: ATR, Q13535
Description: as §1

ATXN2L, Q8WWM7 = molecular target: ATXN2L, Q8WWM7
Description: as §1

C1orf131, Q8NDD1 = molecular target: C1orf131, Q8NDD1
Description: as §1

CFDP1, Q9UEE9 = molecular target: CFDP1, Q9UEE9
Description: as §1

[1] = substrate: CNP, P09543
Description: as §1

COG4, Q9H9E3 = molecular target: COG4, Q9H9E3
Description: as §1

CORO7-PAM16 = molecular target: CORO7-PAM16
Description: as §1

CPS1, P31327 = molecular target: CPS1, P31327
Description: as §1

DCAF7, P61962 = molecular target: DCAF7, P61962
Description: as §1

DFFA, O00273 = molecular target: DFFA, O00273
Description: as §1

DNAJB6, O75190 = molecular target: DNAJB6, O75190
Description: as §1

DPY30, Q9C005 = molecular target: DPY30, Q9C005
Description: as §1

DSC1, Q08554 = molecular target: DSC1, Q08554
Description: as §1

EHHADH, Q08426 = molecular target: EHHADH, Q08426
Description: as §1

EMD, P50402 = molecular target: EMD, P50402
Description: as §1

FAM168A, Q92567 = molecular target: FAM168A, Q92567
Description: as §1

GEMIN4, P57678 = molecular target: GEMIN4, P57678
Description: as §1

HP, P00738 = molecular target: HP, P00738
Description: as §1

ITSN2, Q9NZM3 = molecular target: ITSN2, Q9NZM3
Description: as §1

KIF22, Q14807 = molecular target: KIF22, Q14807
Description: as §1

KRI1, Q8N9T8 = molecular target: KRI1, Q8N9T8
Description: as §1

MCM6, Q14566 = molecular target: MCM6, Q14566
Description: as §1

MED23, Q9ULK4 = molecular target: MED23, Q9ULK4
Description: as §1

NOLC1, Q14978 = molecular target: NOLC1, Q14978
Description: as §1

PACSIN2, Q9UNF0 = molecular target: PACSIN2, Q9UNF0
Description: as §1

PAK4, O96013 = molecular target: PAK4, O96013
Description: as §1

PSRC1, Q6PGN9 = molecular target: PSRC1, Q6PGN9
Description: as §1

RAB6A, P20340 = molecular target: RAB6A, P20340
Description: as §1

RANBP2, P49792 = molecular target: RANBP2, P49792
Description: as §1

RCL1, Q9Y2P8 = molecular target: RCL1, Q9Y2P8
Description: as §1

SAAL1, Q96ER3 = molecular target: SAAL1, Q96ER3
Description: as §1

SLC35F6, Q8N357 = molecular target: SLC35F6, Q8N357
Description: as §1

SNRNP200, O75643 = molecular target: SNRNP200, O75643
Description: as §1

TAF5, Q15542 = molecular target: TAF5, Q15542
Description: as §1

TBRG4, Q969Z0 = molecular target: TBRG4, Q969Z0
Description: as §1

TRMT112, Q9UI30 = molecular target: TRMT112, Q9UI30
Description: as §1

UBAP2L, Q14157 = molecular target: UBAP2L, Q14157
Description: as §1

VIM, P08670 = molecular target: VIM, P08670
Description: as §1

VPS52, Q8N1B4 = molecular target: VPS52, Q8N1B4
Description: as §1

ZW10, O43264 = molecular target: ZW10, O43264
Description: as §1

ZZEF1, O43149 = molecular target: ZZEF1, O43149
Description: as §1

B1: MIEF-MP (peptide)
chain: QKLEDAEARERQLEK
- PRISMA enrichment of interactor (log2) (ANXA7, P20073): 3.91
- PRISMA enrichment of interactor (log2) (ARL6IP4, Q66PJ3): 4.09
- PRISMA enrichment of interactor (log2) (ATR, Q13535): 5.94
- PRISMA enrichment of interactor (log2) (ATXN2L, Q8WWM7): 4.94
- PRISMA enrichment of interactor (log2) (C1orf131, Q8NDD1): 5.29
- PRISMA enrichment of interactor (log2) (CFDP1, Q9UEE9): 5.48
- PRISMA enrichment of interactor (log2) [1]: 5.94
- PRISMA enrichment of interactor (log2) (COG4, Q9H9E3): 6.06
- PRISMA enrichment of interactor (log2) (CORO7-PAM16): 8
- PRISMA enrichment of interactor (log2) (CPS1, P31327): 4.77
- PRISMA enrichment of interactor (log2) (DCAF7, P61962): 5.47
- PRISMA enrichment of interactor (log2) (DFFA, O00273): 4.66
- PRISMA enrichment of interactor (log2) (DNAJB6, O75190): 7.52
- PRISMA enrichment of interactor (log2) (DPY30, Q9C005): 5.86
- PRISMA enrichment of interactor (log2) (DSC1, Q08554): 5.62
- PRISMA enrichment of interactor (log2) (EHHADH, Q08426): 9.84
- PRISMA enrichment of interactor (log2) (EMD, P50402): 7.17
- PRISMA enrichment of interactor (log2) (FAM168A, Q92567): 8.81
- PRISMA enrichment of interactor (log2) (GEMIN4, P57678): 10.3
- PRISMA enrichment of interactor (log2) (HP, P00738): 4.56
- PRISMA enrichment of interactor (log2) (ITSN2, Q9NZM3): 8
- PRISMA enrichment of interactor (log2) (KIF22, Q14807): 5.79
- PRISMA enrichment of interactor (log2) (KRI1, Q8N9T8): 5.55
- PRISMA enrichment of interactor (log2) (MCM6, Q14566): 4.81
- PRISMA enrichment of interactor (log2) (MED23, Q9ULK4): 5.32
- PRISMA enrichment of interactor (log2) (NOLC1, Q14978): 7.9
- PRISMA enrichment of interactor (log2) (PACSIN2, Q9UNF0): 4.35
- PRISMA enrichment of interactor (log2) (PAK4, O96013): 6.08
- PRISMA enrichment of interactor (log2) (PSRC1, Q6PGN9): 7.72
- PRISMA enrichment of interactor (log2) (RAB6A, P20340): 4.76
- PRISMA enrichment of interactor (log2) (RANBP2, P49792): 6.87
- PRISMA enrichment of interactor (log2) (RCL1, Q9Y2P8): 5.21
- PRISMA enrichment of interactor (log2) (SAAL1, Q96ER3): 6.02
- PRISMA enrichment of interactor (log2) (SLC35F6, Q8N357): 4.2
- PRISMA enrichment of interactor (log2) (SNRNP200, O75643): 5.1
- PRISMA enrichment of interactor (log2) (TAF5, Q15542): 4.32
- PRISMA enrichment of interactor (log2) (TBRG4, Q969Z0): 3.83
- PRISMA enrichment of interactor (log2) (TRMT112, Q9UI30): 5.41
- PRISMA enrichment of interactor (log2) (UBAP2L, Q14157): 5.64
- PRISMA enrichment of interactor (log2) (VIM, P08670): 4.88
- PRISMA enrichment of interactor (log2) (VPS52, Q8N1B4): 5.87
- PRISMA enrichment of interactor (log2) (ZW10, O43264): 4.31
- PRISMA enrichment of interactor (log2) (ZZEF1, O43149): 4.13
